No constants are given. Whether binding was seen depends on the method and setting. Some binding calls cover weakened binding; strength is not graded here.
Biological target: Human IL-6 (human, UniProt P05231 30-212)
Experiment: Octet bio-layer interferometry, antibody captured on anti-human IgG1 Fc sensor

Chains of the proteins cited; added tags and fusions are not shown. Lines headed by an entry give the natural chain unless they say otherwise; changes in a name come on top.
UniProt P05231: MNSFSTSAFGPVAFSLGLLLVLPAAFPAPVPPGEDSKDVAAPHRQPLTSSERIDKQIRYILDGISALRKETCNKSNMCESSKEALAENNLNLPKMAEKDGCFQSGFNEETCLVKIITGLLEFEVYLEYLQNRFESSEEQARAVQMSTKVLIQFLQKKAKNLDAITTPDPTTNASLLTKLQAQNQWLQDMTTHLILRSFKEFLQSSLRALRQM

binding: binds
B1: Ab7 (antibody, V domains shown)
VH: QSLEESGGRLVTPGTPLTLTCTASGFSLSNYYMTWVRQAPGKGLEWIGMIYGSDETAYANWAIGRFTISKTSTTVDLKMTSLTAADTATYFCARDDSSDWDAKFNLWGQGTLVTVSS
VL: AYDMTQTPASVSAAVGGTVTIKCQASQSINNELSWYQQKSGQRPKLLIYRASTLASGVSSRFKGSGSGTEFTLTISDLECADAATYYCQQGYSLRNIDNAFGGGTEVVVKR

From patent US20120121594A1 (published 2012)
